These are yes or no findings as the source states them, for the method shown. For some assays here: Binding seen in cells or lysates may run through a third protein. Some entries that bind do so weakly or less than the wild type. For some assays here: Tags and fused reporters may be left off the sequences shown.
Columns and labels:
[1] = target: HA-Vpr fusion (HIV-1 Vpr) expressed from pSF173 in fission yeast (HIV-1) (UniProt P12520); assay: co-IP; fission yeast lysates, anti-HA antibody overnight at 4°C, protein A-agarose beads, washed with PBS; blots with anti-Mts2 or anti-Mts4; HA-Rhp23 with or without vpr expression
[2] = target: Vpr in pGBT9 (yeast two-hybrid fusion) (HIV-1) (UniProt P12520); assay: two-hybrid; vpr in pGBT9, rhp23 fused to the activation domain in pGAD-GH; β-galactosidase assay on cell extracts
[3] = target: T1, HA-tagged Kir2.1 (control) (UniProt P63252); assay: co-IP; HeLa cells 48 hrs after transfection, ProFound Mammalian HA Tag IP/Co-IP kit (anti-HA agarose, overnight, washed with TBST); blots with anti-S2 and anti-S5a
T1 sequence: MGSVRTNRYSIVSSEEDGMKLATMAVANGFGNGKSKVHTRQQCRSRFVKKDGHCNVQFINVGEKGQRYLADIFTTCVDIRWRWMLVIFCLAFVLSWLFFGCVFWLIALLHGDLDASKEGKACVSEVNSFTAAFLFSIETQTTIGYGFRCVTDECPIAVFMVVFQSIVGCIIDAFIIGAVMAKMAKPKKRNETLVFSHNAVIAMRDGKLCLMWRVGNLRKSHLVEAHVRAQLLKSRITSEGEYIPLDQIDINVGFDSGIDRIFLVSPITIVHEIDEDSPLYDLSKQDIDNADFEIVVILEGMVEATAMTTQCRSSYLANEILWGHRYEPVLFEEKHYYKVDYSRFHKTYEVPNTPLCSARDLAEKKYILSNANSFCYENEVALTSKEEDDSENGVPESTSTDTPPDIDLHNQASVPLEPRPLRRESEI

The chains behind the UniProt entries cited, without tags or fusion partners.
UniProt P12520: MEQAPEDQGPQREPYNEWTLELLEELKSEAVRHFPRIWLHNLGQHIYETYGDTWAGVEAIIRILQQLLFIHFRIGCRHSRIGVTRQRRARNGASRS
UniProt P36612: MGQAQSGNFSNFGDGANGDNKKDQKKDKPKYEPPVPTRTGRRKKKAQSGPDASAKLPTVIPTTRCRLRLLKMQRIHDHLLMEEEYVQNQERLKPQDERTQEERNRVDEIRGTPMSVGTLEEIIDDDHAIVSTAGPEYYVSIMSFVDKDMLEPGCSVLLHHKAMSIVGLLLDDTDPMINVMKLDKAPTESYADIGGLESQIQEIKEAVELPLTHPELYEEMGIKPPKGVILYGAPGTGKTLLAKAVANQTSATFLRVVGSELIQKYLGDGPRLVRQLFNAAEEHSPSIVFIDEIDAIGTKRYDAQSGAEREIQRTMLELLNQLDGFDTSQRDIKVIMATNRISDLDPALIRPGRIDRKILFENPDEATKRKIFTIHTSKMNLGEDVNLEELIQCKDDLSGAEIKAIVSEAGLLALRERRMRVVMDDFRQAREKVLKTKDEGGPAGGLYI
UniProt O74803: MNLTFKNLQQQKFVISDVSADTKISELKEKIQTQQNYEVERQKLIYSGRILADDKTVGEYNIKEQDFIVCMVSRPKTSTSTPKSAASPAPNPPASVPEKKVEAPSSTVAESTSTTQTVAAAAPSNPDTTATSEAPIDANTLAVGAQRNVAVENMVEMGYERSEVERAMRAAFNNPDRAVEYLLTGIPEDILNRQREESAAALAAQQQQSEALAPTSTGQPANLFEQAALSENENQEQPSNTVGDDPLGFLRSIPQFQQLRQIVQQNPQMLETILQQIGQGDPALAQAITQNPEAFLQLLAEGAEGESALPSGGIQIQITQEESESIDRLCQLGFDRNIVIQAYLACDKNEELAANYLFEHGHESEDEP
UniProt Q13200: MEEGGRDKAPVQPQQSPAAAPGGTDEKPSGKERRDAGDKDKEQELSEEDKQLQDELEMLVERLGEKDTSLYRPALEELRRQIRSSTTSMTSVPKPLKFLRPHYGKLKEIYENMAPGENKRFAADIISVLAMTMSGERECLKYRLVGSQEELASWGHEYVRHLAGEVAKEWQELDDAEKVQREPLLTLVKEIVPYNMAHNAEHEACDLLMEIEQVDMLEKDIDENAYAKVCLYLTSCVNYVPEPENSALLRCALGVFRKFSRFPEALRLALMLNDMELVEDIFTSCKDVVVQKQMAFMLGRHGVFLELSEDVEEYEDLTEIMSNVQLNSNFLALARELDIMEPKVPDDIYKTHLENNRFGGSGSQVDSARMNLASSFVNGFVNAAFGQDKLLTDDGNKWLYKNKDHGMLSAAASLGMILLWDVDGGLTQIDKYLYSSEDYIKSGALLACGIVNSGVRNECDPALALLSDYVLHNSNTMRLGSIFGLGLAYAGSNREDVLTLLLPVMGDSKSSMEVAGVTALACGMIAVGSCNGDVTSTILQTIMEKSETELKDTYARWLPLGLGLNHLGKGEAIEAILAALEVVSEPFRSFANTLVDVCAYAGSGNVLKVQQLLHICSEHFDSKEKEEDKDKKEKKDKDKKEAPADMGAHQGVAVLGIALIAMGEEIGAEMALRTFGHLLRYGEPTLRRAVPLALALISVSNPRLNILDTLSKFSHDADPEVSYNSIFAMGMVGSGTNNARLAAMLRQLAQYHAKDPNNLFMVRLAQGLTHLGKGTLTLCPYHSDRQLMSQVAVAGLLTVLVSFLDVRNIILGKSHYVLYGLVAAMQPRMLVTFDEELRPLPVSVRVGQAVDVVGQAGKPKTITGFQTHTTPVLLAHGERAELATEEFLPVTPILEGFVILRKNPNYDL
UniProt P55036: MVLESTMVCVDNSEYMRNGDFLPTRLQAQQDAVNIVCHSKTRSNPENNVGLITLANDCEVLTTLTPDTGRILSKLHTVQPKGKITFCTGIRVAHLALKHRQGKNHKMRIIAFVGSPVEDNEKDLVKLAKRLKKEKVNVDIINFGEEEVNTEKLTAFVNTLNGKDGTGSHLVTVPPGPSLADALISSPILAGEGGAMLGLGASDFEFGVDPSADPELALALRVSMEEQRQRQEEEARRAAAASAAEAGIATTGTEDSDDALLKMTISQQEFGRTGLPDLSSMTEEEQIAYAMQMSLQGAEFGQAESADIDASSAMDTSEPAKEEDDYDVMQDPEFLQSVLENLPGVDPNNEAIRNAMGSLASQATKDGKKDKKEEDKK

[4] = target: GST-Vpr (HIV-1) (UniProt P12520); assay: pull-down; GST or GST-Vpr from bacterial lysates immobilized on GST-agarose beads, incubated with in vitro translated 35S-labeled Rhp23; extensive washes, SDS-PAGE, autoradiography; only the target purified

Mts2, subunit of the regulatory 19S complex of the fission yeast 26S proteasome (from UniProt P36612 1-448)
binding [1]: binds

Rhp23 fused to the activation domain in pGAD-GH (yeast two-hybrid fusion) (from UniProt O74803 1-368)
binding [2]: binds

S2, 19S regulatory subunit of the 26S proteasome (mammalian homologue of fission yeast Mts4) (from UniProt Q13200 1-908)
binding [3]: no binding

S5a, 19S regulatory subunit of the 26S proteasome (from UniProt P55036 1-377)
binding [3]: no binding

in vitro translated 35S-labeled Rhp23 (from UniProt O74803 1-368)
binding [4]: binds
